These are yes or no findings as the source states them, for the method shown. In cells and extracts the contact can be indirect. Here binding means that the protein was enriched with, or labelled near, the bait; the list need not be complete.
Tests used:
[1] = biological target: FLAG-tagged human APOBEC3G (human) (UniProt Q9HC16); assay: affinity purification with mass spectrometry; HEK293T cells transfected with FLAG-tagged bait; lysate with anti-FLAG antibody and protein A/G Plus-agarose; SDS gel, Coomassie-stained bands cut out and identified by LC-MS
[2] = biological target: FLAG-tagged full-length mouse APOBEC3 (containing exon 5) (mouse) (UniProt Q99J72); assay: as above

Amino acid sequences for entries named in this document (tags omitted). A change or cut given only in a name is not applied to a line headed by its entry.
UniProt Q9HC16: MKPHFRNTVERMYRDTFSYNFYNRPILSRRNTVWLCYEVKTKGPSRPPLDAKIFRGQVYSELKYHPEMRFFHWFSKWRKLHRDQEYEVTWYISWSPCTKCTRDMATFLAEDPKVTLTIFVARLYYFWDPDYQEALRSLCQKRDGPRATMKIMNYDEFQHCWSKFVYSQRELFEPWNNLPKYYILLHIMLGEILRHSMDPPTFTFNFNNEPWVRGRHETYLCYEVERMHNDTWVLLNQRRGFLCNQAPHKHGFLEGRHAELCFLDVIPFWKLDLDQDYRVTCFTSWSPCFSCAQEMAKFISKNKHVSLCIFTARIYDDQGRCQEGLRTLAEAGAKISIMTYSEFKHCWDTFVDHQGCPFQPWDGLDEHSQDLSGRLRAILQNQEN
UniProt Q99J72: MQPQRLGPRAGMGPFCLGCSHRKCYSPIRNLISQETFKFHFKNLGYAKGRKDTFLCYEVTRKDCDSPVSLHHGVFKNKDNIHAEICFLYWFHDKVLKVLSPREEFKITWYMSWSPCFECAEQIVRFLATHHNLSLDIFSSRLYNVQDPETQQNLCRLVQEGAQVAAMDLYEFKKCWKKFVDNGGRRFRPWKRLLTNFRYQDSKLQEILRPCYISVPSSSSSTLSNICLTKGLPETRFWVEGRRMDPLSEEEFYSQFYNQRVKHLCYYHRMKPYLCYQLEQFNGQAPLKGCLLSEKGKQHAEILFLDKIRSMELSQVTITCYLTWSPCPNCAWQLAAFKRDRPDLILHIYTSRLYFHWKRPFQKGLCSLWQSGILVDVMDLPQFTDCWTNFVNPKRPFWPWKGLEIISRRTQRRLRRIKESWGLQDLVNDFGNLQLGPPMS
UniProt P67809: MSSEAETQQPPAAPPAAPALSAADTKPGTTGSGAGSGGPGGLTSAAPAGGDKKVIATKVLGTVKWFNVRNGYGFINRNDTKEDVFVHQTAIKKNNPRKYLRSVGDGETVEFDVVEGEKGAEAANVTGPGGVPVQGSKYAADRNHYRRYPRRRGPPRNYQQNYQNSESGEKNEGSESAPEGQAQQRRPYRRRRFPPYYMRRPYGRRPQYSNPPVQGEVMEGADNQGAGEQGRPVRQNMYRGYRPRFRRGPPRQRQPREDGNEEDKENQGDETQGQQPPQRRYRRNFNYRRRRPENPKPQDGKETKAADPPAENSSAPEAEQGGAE
UniProt O43143: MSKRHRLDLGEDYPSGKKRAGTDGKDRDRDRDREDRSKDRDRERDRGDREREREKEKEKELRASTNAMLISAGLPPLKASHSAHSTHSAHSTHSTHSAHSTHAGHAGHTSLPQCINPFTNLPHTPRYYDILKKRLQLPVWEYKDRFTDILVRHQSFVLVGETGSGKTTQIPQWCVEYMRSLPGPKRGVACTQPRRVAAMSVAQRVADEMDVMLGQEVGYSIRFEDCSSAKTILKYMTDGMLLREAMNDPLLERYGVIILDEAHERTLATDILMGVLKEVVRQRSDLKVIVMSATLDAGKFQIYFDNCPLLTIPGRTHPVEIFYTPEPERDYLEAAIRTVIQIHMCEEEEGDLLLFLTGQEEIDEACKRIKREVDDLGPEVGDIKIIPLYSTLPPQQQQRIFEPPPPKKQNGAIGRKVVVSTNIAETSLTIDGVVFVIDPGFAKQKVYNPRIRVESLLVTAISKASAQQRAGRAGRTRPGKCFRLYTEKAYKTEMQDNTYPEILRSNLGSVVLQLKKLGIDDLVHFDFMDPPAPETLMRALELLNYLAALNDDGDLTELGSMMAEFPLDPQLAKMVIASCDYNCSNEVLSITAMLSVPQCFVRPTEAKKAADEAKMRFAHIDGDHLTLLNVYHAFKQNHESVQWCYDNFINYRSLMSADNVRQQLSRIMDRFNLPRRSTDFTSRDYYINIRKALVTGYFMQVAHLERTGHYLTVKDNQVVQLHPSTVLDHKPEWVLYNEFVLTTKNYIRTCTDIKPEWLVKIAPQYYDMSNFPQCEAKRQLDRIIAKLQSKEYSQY

Row | binding [1] | binding [2] | Substance
1 | binds | binds | Y-box binding protein 1 (YB1), endogenous in 293T cells (from UniProt P67809 1-324)
2 |  | binds | DEAH-box helicase 15 (DHX15), endogenous in 293T cells (from UniProt O43143 1-795)
3 | binds | binds | hnRNPK, endogenous in 293T cells (from UniProt P61978 1-463)
